The values that follow come from paper PMC12637224, “The nonconserved integrin cytoplasmic region determines integrin subtype–specific characteristics by modulating talin1 binding kinetics” (The Journal of Biological Chemistry, 2025).

These are yes or no findings as the source states them, for the method shown. Binding can be weak; no strength is given.

In the assay the target is GST-fused talin1 FERM F2–F3 domain. Description: BLI; Octet RH96; GST-talin1 FERM F2–F3 (10 μg/ml) immobilized on Octet GST Biosensors; synthetic integrin CT peptides at 4.9, 14.8, 44.4 and 133 μM as analytes in 25 mM Tris–HCl, 150 mM NaCl, 0.05% Triton X-100, pH 7.5; binding to GST alone subtracted; both purified. (BLI is a label-free optical method that tracks binding on a fibre tip over time.)

B1: synthetic integrin β7 cytoplasmic tail peptide (peptide, UniProt P26010 747-798)
peptide: RLSVEIYDRREYSRFEKEQQQLNWKQDSNPLYKSAITTTINPRFQEADSPTL
For the molecule B1, the binding result is listed as “binds”.
